Measurements reported in PubChem BioAssay AID1259308 (NCATS, 2017)
This is an unselected part of about 59,000 reagents tested. Of all reagents, about 1,510 (2.6%) were called active. 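Calls use total luciferase alone and ignore viability, so some active siRNAs may act by altering cell number.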 A number with no mark means an inactive call. The numbers tell different reagents against one gene apart. Not all columns of the deposit are shown.

Test: 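Candidate targets for better recombinant protein yield in mammalian cells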 (primary screen)
Cell system: human HEK293 embryonic kidney cells stably expressing firefly luciferase (HEK-CMV-Luc2-Hygro)
Reagents: single siRNA against human genes, 0.8 pmol siRNA per well
Timing: 72 h
Read-out: 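Reporter luminescence and viable-cell signal on separate replicate plates, given as percent of non-targeting control and median/MAD z-scores, plus per-cell luciferase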
Reading the numbers: total luciferase, z-score and total luciferase, % of control: higher = more reporter protein produced
Hit rule: 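An siRNA counts as active if its total luciferase robust z-score exceeds 3; genes with two or more such siRNAs out of three were retested with fresh siRNAs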
Meaning of the calls: active = raised luciferase; inactive = no rise

For RABL2B (RAB, member of RAS oncogene family like 2B) #1, the entry reads total luciferase, z-score -0.173; total luciferase, % of control 78.4. After knock-down of RABL2B (RAB, member of RAS oncogene family like 2B) #2 the results were total luciferase, z-score -0.192; total luciferase, % of control 78.1. For RABL2B (RAB, member of RAS oncogene family like 2B) #3, the values are total luciferase, z-score 0.0903; total luciferase, % of control 83.7. After knock-down of SLC10A1 #1, the record shows total luciferase, z-score 1.38; total luciferase, % of control 109. For SLC10A1 #2, the values are total luciferase, z-score -0.731; total luciferase, % of control 67.4. Knock-down of SLC10A1 #3 gave: total luciferase, z-score -0.608; total luciferase, % of control 69.8.

Knock-down of CLEC4M (C-type lectin domain family 4 member M) #1 resulted in: total luciferase, z-score 2.49; total luciferase, % of control 131. Depletion of CLEC4M (C-type lectin domain family 4 member M) #2 gave: total luciferase, z-score 1.34; total luciferase, % of control 109. Depletion of CLEC4M (C-type lectin domain family 4 member M) #3 resulted in: total luciferase, z-score 1.98; total luciferase, % of control 121. After knock-down of PRSS54 (serine protease 54) #1, the record shows total luciferase, z-score -2.53; total luciferase, % of control 31.5. PRSS54 (serine protease 54) #2 showed total luciferase, z-score 0.27; total luciferase, % of control 87.3. PRSS54 (serine protease 54) #3 showed total luciferase, z-score -0.416; total luciferase, % of control 73.6.

Against ATG101 (autophagy related 101) #1, the entry reads total luciferase, z-score 0.74; total luciferase, % of control 96.6. Depletion of ATG101 (autophagy related 101) #2 came out at: total luciferase, z-score 2.07; total luciferase, % of control 123. Depletion of ATG101 (autophagy related 101) #3 came out at: total luciferase, z-score 0.345; total luciferase, % of control 88.7. Depletion of NEUROD6 (neuronal differentiation 6) #1 came out at: total luciferase, z-score 0.829; total luciferase, % of control 98.4. Silencing of NEUROD6 (neuronal differentiation 6) #2 came out at: total luciferase, z-score -0.506; total luciferase, % of control 71.8. Depletion of NEUROD6 (neuronal differentiation 6) #3 resulted in: total luciferase, z-score -0.549; total luciferase, % of control 71.

With knock-down of NCAM1 (neural cell adhesion molecule 1) #1 the results were total luciferase, z-score -0.148; total luciferase, % of control 79. After knock-down of NCAM1 (neural cell adhesion molecule 1) #2, the screen gave total luciferase, z-score -0.819; total luciferase, % of control 65.6. For NCAM1 (neural cell adhesion molecule 1) #3, the values are total luciferase, z-score 1.1; total luciferase, % of control 104. POLR2L (RNA polymerase II, I and III subunit L) #1 showed total luciferase, z-score -1.93; total luciferase, % of control 43.5. Against POLR2L (RNA polymerase II, I and III subunit L) #2, the values are total luciferase, z-score -0.579; total luciferase, % of control 70.4. POLR2L (RNA polymerase II, I and III subunit L) #3 gave total luciferase, z-score -0.851; total luciferase, % of control 65.

3 consecutive entries from above, for reference:
RABL2B (RAB, member of RAS oncogene family like 2B) #3 → total luciferase, z-score = 0.0903; total luciferase, % of control = 83.7
SLC10A1 #1 → total luciferase, z-score = 1.38; total luciferase, % of control = 109
SLC10A1 #2 → total luciferase, z-score = -0.731; total luciferase, % of control = 67.4

The results go on:
Silencing of C6orf136 (chromosome 6 open reading frame 136) #1 gave: total luciferase, z-score 0.0795; total luciferase, % of control 83.5. Depletion of C6orf136 (chromosome 6 open reading frame 136) #2 gave: total luciferase, z-score -0.203; total luciferase, % of control 77.8. With knock-down of C6orf136 (chromosome 6 open reading frame 136) #3, the record shows total luciferase, z-score -1.21; total luciferase, % of control 57.8. After knock-down of DIS3L (DIS3 like exosome 3'-5' exoribonuclease) #1, the screen gave total luciferase, z-score 2.32; total luciferase, % of control 128. With knock-down of DIS3L (DIS3 like exosome 3'-5' exoribonuclease) #2 the results were total luciferase, z-score 0.144; total luciferase, % of control 84.7. For DIS3L (DIS3 like exosome 3'-5' exoribonuclease) #3, the values are total luciferase, z-score 0.592; total luciferase, % of control 93.7.

Silencing of OR6K2 (olfactory receptor family 6 subfamily K member 2) #1 resulted in: total luciferase, z-score 0.128; total luciferase, % of control 84.4. Depletion of OR6K2 (olfactory receptor family 6 subfamily K member 2) #2 resulted in: total luciferase, z-score -1.4; total luciferase, % of control 54. OR6K2 (olfactory receptor family 6 subfamily K member 2) #3 scored total luciferase, z-score 1.3; total luciferase, % of control 108. ADTRP (androgen dependent TFPI regulating protein) #1 gave total luciferase, z-score 0.755; total luciferase, % of control 96.9. Silencing of ADTRP (androgen dependent TFPI regulating protein) #2 came out at: total luciferase, z-score 0.537; total luciferase, % of control 92.6. Depletion of ADTRP (androgen dependent TFPI regulating protein) #3 came out at: total luciferase, z-score -0.466; total luciferase, % of control 72.6.

COIL (coilin) #1 gave total luciferase, z-score -0.61; total luciferase, % of control 69.8. COIL (coilin) #2 scored total luciferase, z-score -0.799; total luciferase, % of control 66. COIL (coilin) #3 scored total luciferase, z-score 1.78; total luciferase, % of control 117. For TSGA10IP (testis specific 10 interacting protein) #1, the entry reads total luciferase, z-score 2.05; total luciferase, % of control 123. TSGA10IP (testis specific 10 interacting protein) #2 gave total luciferase, z-score 0.711; total luciferase, % of control 96. Against TSGA10IP (testis specific 10 interacting protein) #3, the entry reads total luciferase, z-score 2; total luciferase, % of control 122.
